Results: PubChem BioAssay AID540303 (National Center for Advancing Translational Sciences (NCATS), 2011)
About 1,000 (0.3%) of roughly 330,000 compounds were called active. The shares of active, inactive and inconclusive entries below differ from those in the screen. The call rests on the fitted dose curve; in most records, active means well fitted inhibition curve with a large enough effect; inconclusive means small, poorly fitted or top-dose-only effect; inactive means no such curve, though single readings can be large or run the other way; tested in mouse RAW 264.7 cells. Potencies beside an inconclusive call are fits to weak or partial responses and may not hold up.

Test: qHTS for Inhibitors of Cell Surface uPA Generation; further: nearly all actives have a fitted effect of over 55% in size
Settings: cell surface uPA generation assay; series mostly up to 38.3 µM; activity change, negative = inhibition: at the top concentration
Outline: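 ATP-Lite luminescence in RAW 264.7 cells after 24 h of exposure to compound, tested up to 38.3 uM final in 1:5 steps. Raised ATP reflects inhibition of uPA-dependent LF delivery to the cytoplasm.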
On the % scale 0 is the no-effect control and ±100 the full control effect; potency means the concentration at half of the fitted maximal effect.

Compound | activity change, negative = inhibition | Potency
CC(=O)C1=C(NC(=O)c2ccc(F)cc2)CC2C1C2(C)C (centres undefined) | inactive: 4.79% | –
COc1cc2[nH]c(-c3cccc(F)c3)cc(=O)c2cc1OC | – | inconclusive: 11.2 µM [inhibitor, single point]
CCC1=C2CC[C@H]3C(=O)N(c4ccccc4)C(=O)[C@H]3[C@H]2[C@@]2(C)C(=NCc3ccccc3)OC(=O)N2C1=O | – | inconclusive: 31.6 µM [inhibitor, single point]
COc1ccc(-c2cc3ccc(OC(C)C(=O)O)cc3oc2=O)cc1 (centres undefined) | – | inconclusive: 2 µM [inhibitor, single point]
CCN(c1ccccc1)S(=O)(=O)c1ccc(OC)c(NC(=O)C2CCC2)c1 | – | inconclusive: 8.91 µM [inhibitor, single point]
O=C(Cc1ccccc1)NNc1ccc2ccccc2c1 | – | inconclusive: 11.2 µM [inhibitor, single point]
CCCCNC(=O)C(CC)(ONc1ccccc1C(F)(F)F)c1ccccc1 (centres undefined) | – | inconclusive: 11.2 µM [inhibitor, partial curve, poor fit]
COCCN(CC(=O)Nc1cccc(C)c1C)C(=O)CN1C(=O)NC2(CCCCC2)C1=O | – | inconclusive: 0.199 µM [inhibitor, partial curve, poor fit]
COc1cccc2cc(/C(=N/O)c3ccc(Br)cc3)oc12 | – | inconclusive: 15.8 µM [inhibitor, partial curve, poor fit]
Cc1ccc(S(=O)(=O)NCCC(c2ccccc2)c2ccco2)cc1 (centres undefined) | inactive: 5.84% | –
O=C(N/N=C\c1ccc([N+](=O)[O-])s1)C1COc2ccccc2O1 (centres undefined) | – | inconclusive: 3.55 µM [inhibitor, partial curve, poor fit]
CCCn1c(=O)c(C(=O)NCCc2ccc(OC)cc2)c(O)c2ccccc21 | inactive: -3.91% | –
C[C@]12c3[nH]c4ccc(Cl)cc4c3CCN1C(=O)[C@@H](CC(=O)NCc1cccc(C(F)(F)F)c1)C[C@@H]2C(=O)N1CCOCC1 | – | inconclusive: 12.6 µM [inhibitor, single point]
Cc1ccc(Cn2nc(C)c(NC(=O)C3CC3)c2C)cc1 | inactive: 2.93% | –
CN1CCN(c2nc(-c3cccnc3)nc3scc(-c4ccccc4)c23)CC1 | inactive: -8.41% | –
C=C1C(O)[C@@H]2O[C@]3(CC[C@H](/C=C/C(C)[C@@H]4CC(C)=CC5(O[C@H](C[C@@](C)(O)CO)CCC5O)O4)O3)CC[C@H]2O[C@@H]1C(O)CC(C)[C@H]1OC2(CCCCO2)CCC1C (some centres undefined) | – | inconclusive: 0.794 µM [inhibitor, full curve, poor fit]
O=C(COC(=O)/C=C/c1ccco1)Nc1ccccc1 | inactive: 0.499% | –
Cc1ccc(OCC(=O)N2CCN(C(=O)c3ccncc3)CC2)cc1 | – | inconclusive: 0.0112 µM [inhibitor, full curve, poor fit]
CCCCNc1c(-c2ccc(-c3ccc(OC)cc3)c(OC)c2)nc2ccccn12 | – | active: 12.6 µM
O=[N+]([O-])c1ncn(Cc2c(Cl)cccc2Cl)n1 | – | inconclusive: 10 µM [inhibitor, partial curve]
COc1ccc(OC)c2sc(NC(=O)CCSc3ccccc3)nc12 | inactive: -16.6% | –
Nc1c(N(CCC2=CCCCC2)C(=O)COc2ccc(F)cc2)c(=O)[nH]c(=O)n1Cc1ccccc1 | – | inconclusive: 28.2 µM [inhibitor, single point]

Complete entries, looked up by structure:
CCCCNC(=O)C(CC)(ONc1ccccc1C(F)(F)F)c1ccccc1 (centres undefined) as listed: Potency: inconclusive: 11.2 µM [inhibitor, partial curve, poor fit]
O=C(Cc1ccccc1)NNc1ccc2ccccc2c1 as listed: Potency: inconclusive: 11.2 µM [inhibitor, single point]

The list continues:

Compound | activity change, negative = inhibition | Potency
O=C(Nc1cccc(Cl)c1)c1cc(S(=O)(=O)NCCc2ccc(Cl)cc2)ccc1F | inactive: -6.8% | –
Cc1c(O)c(=O)ccn1Cc1ccccc1 | – | inconclusive: 7.08 µM [inhibitor, partial curve, poor fit]
COc1ccc(NC(=O)c2ccccc2NC(=O)C2CCCO2)cc1 (centres undefined) | inactive: -4.77% | –
COc1ccccc1-c1cc(C(=O)NCc2ccc(F)cc2)no1 | inactive: -11.3% | –
Nc1cccc2c1C(=O)N(c1ccccc1)C2=O | inactive: 1.92% | –
CC(C)(C)OC(=O)[C@H](Cc1ccccc1)NC(=O)c1nc[nH]c1C(=O)NC1CCN(C(=O)OC(C)(C)C)CC1 | inactive: -4.01% | –
COC(=O)C(COC(=O)c1c(F)cccc1F)NC(=O)c1c(F)cccc1F (centres undefined) | – | inconclusive: 28.2 µM [inhibitor, single point]
Clc1ccc(CNc2ccc3nnc(-c4ccccc4)n3n2)cc1 | – | inconclusive: 2.51 µM [inhibitor, full curve]
CCCCC(=O)NC(=S)NNC(=O)c1ccc(Cl)cc1Cl | inactive: 1.88% | –
O=C(Nc1cccc(C(=O)O)c1)/C(=C\c1ccc2c(c1)OCO2)NC(=O)c1ccccc1 | inactive: 7.06% | –
COc1cc(C(CC(=O)Nc2ccc(Cl)cn2)N2Cc3ccccc3C2=O)cc(OC)c1OC (centres undefined) | – | inconclusive: 25.1 µM [inhibitor, partial curve, poor fit]
Cc1cccc(OCC(O)CN2CCNCC2)c1 (centres undefined) | inactive: 0.414% | –
Cc1cc(O)c(C(C)C)cc1N=Cc1ccccc1O | – | inconclusive: 10 µM [inhibitor, single point]
COc1cc(C(O)P(=O)(OC2CCCCC2)c2ccc(N(C)C)cc2)cc(OC)c1OC (centres undefined) | inactive: 4.58% | –
CCCNC(=O)c1ccc2c(=O)c(O)c(-c3ccc(C)cc3)[nH]c2c1 | – | inconclusive: 28.2 µM [inhibitor, single point]
NC(N)=N/N=C/c1ccc(OS(=O)(=O)c2ccccc2)cc1 | – | inconclusive: 14.1 µM [inhibitor, single point]
Cc1ccc(Oc2nc3ccccn3c(=O)c2/C=C(\C#N)C(=O)NC2CCS(=O)(=O)C2)c(C)c1 (centres undefined) | – | inconclusive: 1 µM [inhibitor, partial curve, poor fit]
O=C1NN(c2ccccc2)C(=O)/C1=C\c1coc2ccc(O)cc2c1=O | – | inconclusive: 22.4 µM [inhibitor, partial curve]
COC(=O)Cc1c(C)c2ccc(OC3CCCCC3=O)c(C)c2oc1=O (centres undefined) | inactive: -10.2% | –
Cc1ccc(S(=O)(=O)NCCC(=O)NCc2cccnc2)cc1 | – | inconclusive: 1.58 µM [inhibitor, full curve, poor fit]
CC(C)OC(=O)CSc1nc2c(cc1C#N)CCCCC2 | – | inconclusive: 7.94 µM [inhibitor, single point]
COc1cc(CNc2ncc(-c3ccc(Br)cc3)n2C)cc(OC)c1OC | – | inconclusive: 3.55 µM [inhibitor, partial curve, poor fit]
